Construct, isoform or probe ends are uncertain for at least one entry. At least one result comes from cells or an extract, where the contact may be indirect.

Sequences of proteins named here, by UniProt entry; tags and fusion partners are left off. A change or cut given only in a name is not applied to a line headed by its entry.
UniProt P15941: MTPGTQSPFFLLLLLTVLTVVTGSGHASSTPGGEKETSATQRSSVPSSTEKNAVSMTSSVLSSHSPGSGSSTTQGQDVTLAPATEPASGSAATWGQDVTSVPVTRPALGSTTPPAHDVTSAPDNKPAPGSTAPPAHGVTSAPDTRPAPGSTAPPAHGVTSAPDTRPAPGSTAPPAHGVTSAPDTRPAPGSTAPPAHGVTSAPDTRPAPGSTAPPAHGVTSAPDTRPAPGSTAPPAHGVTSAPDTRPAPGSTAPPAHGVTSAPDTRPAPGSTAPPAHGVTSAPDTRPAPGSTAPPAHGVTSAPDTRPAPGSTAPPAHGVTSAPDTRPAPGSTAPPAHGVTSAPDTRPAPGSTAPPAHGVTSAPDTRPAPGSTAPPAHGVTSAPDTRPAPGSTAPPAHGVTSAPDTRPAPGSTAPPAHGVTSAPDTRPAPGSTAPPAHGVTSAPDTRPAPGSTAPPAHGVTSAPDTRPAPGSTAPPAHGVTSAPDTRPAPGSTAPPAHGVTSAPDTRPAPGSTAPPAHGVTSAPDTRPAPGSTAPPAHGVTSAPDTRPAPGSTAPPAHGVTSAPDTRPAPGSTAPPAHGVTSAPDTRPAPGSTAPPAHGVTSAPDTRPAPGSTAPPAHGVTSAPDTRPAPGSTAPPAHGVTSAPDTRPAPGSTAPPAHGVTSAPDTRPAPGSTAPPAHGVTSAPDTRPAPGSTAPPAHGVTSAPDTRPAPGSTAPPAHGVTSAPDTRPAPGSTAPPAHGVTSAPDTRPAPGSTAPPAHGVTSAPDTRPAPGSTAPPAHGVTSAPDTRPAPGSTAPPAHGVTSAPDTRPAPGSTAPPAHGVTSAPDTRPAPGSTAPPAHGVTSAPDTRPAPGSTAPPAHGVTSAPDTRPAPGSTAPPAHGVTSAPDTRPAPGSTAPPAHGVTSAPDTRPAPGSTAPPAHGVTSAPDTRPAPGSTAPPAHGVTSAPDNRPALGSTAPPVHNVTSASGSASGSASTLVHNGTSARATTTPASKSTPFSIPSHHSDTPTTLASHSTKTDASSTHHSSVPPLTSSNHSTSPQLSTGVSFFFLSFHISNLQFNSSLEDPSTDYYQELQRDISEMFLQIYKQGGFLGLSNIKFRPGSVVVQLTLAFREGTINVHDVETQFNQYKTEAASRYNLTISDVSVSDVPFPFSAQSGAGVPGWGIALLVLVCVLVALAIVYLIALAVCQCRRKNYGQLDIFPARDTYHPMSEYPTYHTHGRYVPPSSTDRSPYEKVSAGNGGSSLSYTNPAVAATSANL

For the series, the target named is Mucin 1 (MUC1), on MUC1-positive cells (UniProt P15941). The experiment in a line: flow cytometry. Particulars: 300 nM DNA, 30 min, Flow cytometry on intact cells in 200 ul PBS, 300 nM FAM-labelled DNA, two washes in Hanks buffer, temperature and pH not given, protein on the cell surface. (In general: In flow cytometry, cells or beads pass a laser one at a time.)

Regarding “TTCCCTTCCTTCTCTCTTCCTCTCTCGCAGTTGATCCTTTGGATACCCTG / AGGAAGAGAGAAGGAAGGGAATTTTTACATTCCTAAGTCTGAAACATTACAGCTTGCTACACGAGAAGAGCCGCCATAGTA / TATCACCAGGCAGTTGACAGTGTAGCAAGCTGTAATAGATGCGAGGGTCCAATAC / TCAACTGCCTGGTGATAAAACGACACTACGTGGGAATCTACTATGGCGGCTCTTC / TTCAGACTTAGGAATGTGCTTCCCACGTAGTGTCGTTTGTATTGGACCCTCGCAT [Apt-Td (aptamer-DNA tetrahedron)]”, for the setting “preferential binding to MUC1-positive MCF-7 cells, folded or branched DNA”, the binding result is recorded as “binds”.
With “TTCCCTTCCTTCTCTCTTCCTCTCTCGCAGTTGATCCTTTGGATACCCTG [Apt-tail]”, the binding result (MUC1-positive cells (MCF-7, A549, HT-29), strong versus MUC1-negative cells, label: 5'-FAM, single-stranded DNA) is listed as “binds”.
